Data reported in PMC7560216.
No constants are given. Whether binding was seen depends on the method and setting. In cells and extracts the contact can be indirect. Some results given as binding are weak or reduced against the parent protein; the word gives no strength.

Amino acid sequences for entries named in this document (tags omitted). A change or cut given only in a name is not applied to a line headed by its entry. Chains listed by the source or under a name are the forms on record and can include a tag or linker.
UniProt P38959: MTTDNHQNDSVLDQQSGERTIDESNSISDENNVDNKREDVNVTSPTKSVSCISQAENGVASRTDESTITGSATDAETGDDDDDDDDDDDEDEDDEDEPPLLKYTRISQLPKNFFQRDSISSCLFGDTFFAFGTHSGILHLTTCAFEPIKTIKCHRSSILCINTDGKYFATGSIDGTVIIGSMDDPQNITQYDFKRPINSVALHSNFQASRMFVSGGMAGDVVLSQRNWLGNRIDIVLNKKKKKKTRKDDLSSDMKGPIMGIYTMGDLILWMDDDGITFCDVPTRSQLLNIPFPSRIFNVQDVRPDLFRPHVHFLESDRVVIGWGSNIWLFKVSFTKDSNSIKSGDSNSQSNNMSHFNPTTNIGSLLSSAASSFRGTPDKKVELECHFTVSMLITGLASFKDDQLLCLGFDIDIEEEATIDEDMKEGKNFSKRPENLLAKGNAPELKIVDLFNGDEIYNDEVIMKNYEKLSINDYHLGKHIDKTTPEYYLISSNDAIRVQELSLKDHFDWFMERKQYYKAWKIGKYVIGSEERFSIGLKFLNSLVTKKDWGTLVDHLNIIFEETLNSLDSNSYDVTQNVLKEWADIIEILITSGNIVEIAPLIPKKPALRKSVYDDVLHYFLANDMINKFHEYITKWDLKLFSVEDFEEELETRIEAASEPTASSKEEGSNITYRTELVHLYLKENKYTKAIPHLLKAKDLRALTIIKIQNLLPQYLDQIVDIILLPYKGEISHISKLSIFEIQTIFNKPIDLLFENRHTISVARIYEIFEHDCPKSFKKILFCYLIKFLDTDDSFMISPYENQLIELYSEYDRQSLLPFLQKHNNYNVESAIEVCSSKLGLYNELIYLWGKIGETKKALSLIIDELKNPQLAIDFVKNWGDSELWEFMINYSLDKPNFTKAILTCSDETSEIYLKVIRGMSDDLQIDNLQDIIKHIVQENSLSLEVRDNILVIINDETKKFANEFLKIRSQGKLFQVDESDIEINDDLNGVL
Vps41(S-D)-GFP-Fis1 (P38959, form named): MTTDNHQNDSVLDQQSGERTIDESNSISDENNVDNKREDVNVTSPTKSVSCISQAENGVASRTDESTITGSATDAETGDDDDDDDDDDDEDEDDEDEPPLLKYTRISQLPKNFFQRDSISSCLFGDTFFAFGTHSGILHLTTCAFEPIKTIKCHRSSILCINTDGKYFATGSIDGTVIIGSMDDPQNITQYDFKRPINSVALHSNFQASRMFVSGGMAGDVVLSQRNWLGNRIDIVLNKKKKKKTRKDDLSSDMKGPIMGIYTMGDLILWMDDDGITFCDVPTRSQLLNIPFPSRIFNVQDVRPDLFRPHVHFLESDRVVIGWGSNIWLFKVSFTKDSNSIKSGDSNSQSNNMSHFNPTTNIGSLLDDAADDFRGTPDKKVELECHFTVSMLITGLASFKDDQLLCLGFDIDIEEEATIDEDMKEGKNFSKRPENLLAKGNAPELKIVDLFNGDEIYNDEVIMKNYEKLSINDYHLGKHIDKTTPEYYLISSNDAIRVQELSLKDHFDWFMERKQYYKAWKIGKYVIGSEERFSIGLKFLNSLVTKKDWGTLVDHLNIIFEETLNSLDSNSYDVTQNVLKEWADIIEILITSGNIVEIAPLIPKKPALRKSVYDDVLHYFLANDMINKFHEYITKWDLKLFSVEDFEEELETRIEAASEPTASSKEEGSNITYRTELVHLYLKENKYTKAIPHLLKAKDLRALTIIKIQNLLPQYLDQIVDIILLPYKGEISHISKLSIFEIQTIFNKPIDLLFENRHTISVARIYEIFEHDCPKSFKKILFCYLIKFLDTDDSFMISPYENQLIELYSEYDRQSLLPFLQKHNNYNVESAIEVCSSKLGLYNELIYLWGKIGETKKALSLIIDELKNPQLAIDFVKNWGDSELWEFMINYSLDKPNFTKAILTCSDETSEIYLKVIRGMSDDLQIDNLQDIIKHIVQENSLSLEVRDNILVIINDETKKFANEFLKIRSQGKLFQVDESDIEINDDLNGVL

Target: Vps41(S-D)-GFP-Fis1 (S. cerevisiae) (UniProt P38959)
Experiment: co-sedimentation; mitochondria purified from yeast grown in YPG by differential centrifugation and a sucrose gradient; crude and pure fractions analysed by Western blot

B1: Apl5 (protein, UniProt Q08951 1-932)
chain: MTSLYAPGAEDIRQRLRPFGFFFEKSLKDLIKGIRSHNETPEKLDQFFKQVLSECREEVNSPDLNSKTNAVLKLTYLEMYGFDMAWCNFHILEVMSSNKLQQKRVGYLAASQSFYKDSDILMLATNLLKKDLKYDGNNDVVKVGIALSGLSTIITPSLARDIADDLFTMLNSTRPYIRKKAITALFKVFLQYPEALRDNFDKFVSKLDDDDISVVSAAVSVICELSKKNPQPFIQLSPLLYEILVTIDNNWIIIRLLKLFTNLSQVEPKLRAKLLPKILELMESTVATSVIYESVNCIVKGNMLEEDDFETAMACLERLHTFCDSQDPNLRYISCILFYKIGKINTDFISRFDQLIIRLLSDVDVSIRSKAIELVEGIVDEDNLKAIVQTLMKQFVDEDVVILQTGSIVYEKSKRIPIIIPENYKIKMVNVIISICSADNYSSVNDFEWYNAVIMDLAMLCQDISDKSLGSKIGEQFRNLMIKVPSMREVTIANIIKLISNDNINKQLPTVLRECIWCLGEFSTLVENGNDLIKIMTENISYYSHSVQEVLILALVKVFSNWCNNFQEDKRFEIKMVLKELIEFFENLSYSSTFEVQERSVEVLEFLRLSLEALEEDTEGLPMLLSEVLPSFFNAYELAPIARGTQLKLAVDENLDLETPFLTKEAADELLDEQKSDAISDLMSDISMDEQVELKFVDDSDTSYEEKEKLDDFENPFEIEREKERMSNPYYLGEEDEERTKNSKDLLDLNEEESSDKKPETIRLNRTDNSLNSLSLSTTEISRKKKKGKKKNRVQVLSDEPVIEAAPKRKDAFQKPHDNHSTQNPLKKDKINLRMHSQLENFDFSNFGQSSNAGRGSQEEGNLRKEDELELSRLEANLIVKDEKDNLSDTEEVIVIKKKKKGKKSKSKNKLKTKAKNSPEPNEFLRDQSTDI
binding: binds
